These are yes or no findings as the source states them, for the method shown. Binding seen in cells or lysates may run through a third protein. These calls come from enrichment with a bait or labelling near it, and not all partners need be listed. Sequences can lack the tags named with a protein. One block for each binder: values may come before it.
Target: T1, PATL2-HA3, triple hemagglutinin-tagged PATELLIN2 (pro35S::PATL2-HA3 Arabidopsis roots) (Arabidopsis thaliana) (UniProt Q56ZI2)
T1 sequence: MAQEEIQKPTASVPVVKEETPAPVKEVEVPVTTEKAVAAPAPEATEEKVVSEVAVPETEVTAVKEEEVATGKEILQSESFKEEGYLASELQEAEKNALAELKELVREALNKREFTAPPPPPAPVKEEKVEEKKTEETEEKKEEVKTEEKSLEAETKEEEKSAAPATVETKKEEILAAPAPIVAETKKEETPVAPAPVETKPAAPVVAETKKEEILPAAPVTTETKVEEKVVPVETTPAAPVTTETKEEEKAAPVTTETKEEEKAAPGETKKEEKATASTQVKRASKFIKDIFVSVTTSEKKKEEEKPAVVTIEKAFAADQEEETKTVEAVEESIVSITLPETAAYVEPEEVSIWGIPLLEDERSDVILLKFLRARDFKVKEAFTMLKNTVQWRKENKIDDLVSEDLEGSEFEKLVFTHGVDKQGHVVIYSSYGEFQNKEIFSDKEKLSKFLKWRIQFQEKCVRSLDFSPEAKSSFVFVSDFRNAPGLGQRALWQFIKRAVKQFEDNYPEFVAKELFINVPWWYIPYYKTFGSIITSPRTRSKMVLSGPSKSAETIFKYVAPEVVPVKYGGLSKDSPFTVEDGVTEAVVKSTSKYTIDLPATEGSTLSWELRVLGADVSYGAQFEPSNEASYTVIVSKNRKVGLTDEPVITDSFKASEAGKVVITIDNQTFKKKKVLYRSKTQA
Assay: affinity purification with mass spectrometry; anti-HA magnetic beads on roots of pro35S::PATL2-HA3 and wild-type Arabidopsis, 14 + 3 d system, 0 µM Fe and 50 µM Fe, 5 biological replicates; label-free quantification, enrichment against wild type

- binding: binds
B2: ascorbate peroxidase (APX1) (enzyme, UniProt Q05431 1-250)
chain: MTKNYPTVSEDYKKAVEKCRRKLRGLIAEKNCAPIMVRLAWHSAGTFDCQSRTGGPFGTMRFDAEQAHGANSGIHIALRLLDPIREQFPTISFADFHQLAGVVAVEVTGGPDIPFHPGREDKPQPPPEGRLPDATKGCDHLRDVFAKQMGLSDKDIVALSGAHTLGRCHKDRSGFEGAWTSNPLIFDNSYFKELLSGEKEGLLQLVSDKALLDDPVFRPLVEKYAADEDAFFADYAEAHMKLSELGFADA

- binding: binds
B4: catalase (CAT3) (enzyme, UniProt Q42547 1-492)
chain: MDPYKYRPSSAYNAPFYTTNGGAPVSNNISSLTIGERGPVLLEDYHLIEKVANFTRERIPERVVHARGISAKGFFEVTHDISNLTCADFLRAPGVQTPVIVRFSTVVHERASPETMRDIRGFAVKFYTREGNFDLVGNNTPVFFIRDGIQFPDVVHALKPNPKTNIQEYWRILDYMSHLPESLLTWCWMFDDVGIPQDYRHMEGFGVHTYTLIAKSGKVLFVKFHWKPTCGIKNLTDEEAKVVGGANHSHATKDLHDAIASGNYPEWKLFIQTMDPADEDKFDFDPLDVTKIWPEDILPLQPVGRLVLNRTIDNFFNETEQLAFNPGLVVPGIYYSDDKLLQCRIFAYGDTQRHRLGPNYLQLPVNAPKCAHHNNHHEGFMNFMHRDEEINYYPSKFDPVRCAEKVPTPTNSYTGIRTKCVIKKENNFKQAGDRYRSWAPDRQDRFVKRWVEILSEPRLTHEIRGIWISYWSQADRSLGQKLASRLNVRPSI

Further lines, the binder ahead of its results:

B1: PATELLIN4 (PATL4) (protein, UniProt Q94C59 1-540)
chain: MTAEVKVEEKQVESEVVIAPAVVPEETTVKAVVEETKVEEDESKPEGVEKSASFKEESDFFADLKESEKKALSDLKSKLEEAIVDNTLLKTKKKESSPMKEKKEEVVKPEAEVEKKKEEAAEEKVEEEKKSEAVVTEEAPKAETVEAVVTEEIIPKEEVTTVVEKVEEETKEEEKKTEDVVTEEVKAETIEVEDEDESVDKDIELWGVPLLPSKGAESTDVILLKFLRARDFKVNEAFEMLKKTLKWRKQNKIDSILGEEFGEDLATAAYMNGVDRESHPVCYNVHSEELYQTIGSEKNREKFLRWRFQLMEKGIQKLNLKPGGVTSLLQIHDLKNAPGVSRTEIWVGIKKVIETLQDNYPEFVSRNIFINVPFWFYAMRAVLSPFLTQRTKSKFVVARPAKVRETLLKYIPADELPVQYGGFKTVDDTEFSNETVSEVVVKPGSSETIEIPAPETEGTLVWDIAVLGWEVNYKEEFVPTEEGAYTVIVQKVKKMGANEGPIRNSFKNSQAGKIVLTVDNVSGKKKKVLYRYRTKTESSS
- binding: binds

B3: PATELLIN1 (PATL1) (protein, UniProt Q56WK6 1-573)
chain: MAQEEVQKSADVAAAPVVKEKPITDKEVTIPTPVAEKEEVAAPVSDEKAVPEKEVTPEKEAPAAEAEKSVSVKEEETVVVAEKVVVLTAEEVQKKALEEFKELVREALNKREFTAPVTPVKEEKTEEKKTEEETKEEEKTEEKKEETTTEVKVEEEKPAVPAAEEEKSSEAAPVETKSEEKPEEKAEVTTEKASSAEEDGTKTVEAIEESIVSVSPPESAVAPVVVETVAVAEAEPVEPEEVSIWGVPLLQDERSDVILTKFLRARDFKVKEALTMLKNTVQWRKENKIDELVESGEEVSEFEKMVFAHGVDKEGHVVIYSSYGEFQNKELFSDKEKLNKFLSWRIQLQEKCVRAIDFSNPEAKSSFVFVSDFRNAPGLGKRALWQFIRRAVKQFEDNYPEFAAKELFINVPWWYIPYYKTFGSIITSPRTRSKMVLAGPSKSADTIFKYIAPEQVPVKYGGLSKDTPLTEETITEAIVKPAANYTIELPASEACTLSWELRVLGADVSYGAQFEPTTEGSYAVIVSKTRKIGSTDEPVITDSFKVGEPGKIVITIDNQTSKKKKVLYRFKTQ
- binding: binds

B5: TRX3 (protein, UniProt Q42403 1-118)
chain: MAAEGEVIACHTVEDWTEKLKAANESKKLIVIDFTATWCPPCRFIAPVFADLAKKHLDVVFFKVDVDELNTVAEEFKVQAMPTFIFMKEGEIKETVVGAAKEEIIANLEKHKTVVAAA
- binding: binds
